# From the supplement of paper PMC10735217
# Counter-ions that a name gives are not always drawn. This is one part of the list. This data set is noisy: repeats of one test often differ as much as different tests do.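 The human kidney-derived cells carry a stably integrated construct of eight TEAD-binding elements driving luciferase, read by luminescence in a drug-repurposing library screen. A compound counts as a hit when its signal is more than five robust Z scores above the plate mean.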
# Test system: HEK293A TEAD-LUC reporter
# Assay: TEAD-luciferase reporter activity (YAP activation), robust Z score vs plate; higher = stronger YAP/TEAD activation
# Details: 24 h
SMILES,TEAD-luciferase reporter activity (compound concentration: 200 nM),TEAD-luciferase reporter activity (compound concentration: 2 uM),TEAD-luciferase reporter activity (compound concentration: 10 uM)
CNC(=O)c1c(C)oc2cc(Oc3ncnc4cc(OC)c(OC)cc34)ccc12 [Fruquintinib],inactive: -2.04,inactive: -1.98,inactive: -1.31
COC(=O)c1c(Cl)cccc1-c1ccc([C@@H](C)NC(=O)C2(NC(=O)C(F)(F)F)CC2)c(F)c1,inactive: 0.386,inactive: -0.498,inactive: 3.03
[O]=[V+2] [Vanadyl sulfate],inactive: 1.19,inactive: -0.453,inactive: -0.169
Cc1cc(C)n(O)c(=O)c1,inactive: -0.0189,inactive: -1.7,inactive: 0.458
COc1cc(C(O)CNC(C)CCn2cnc3ccccc32)ccc1O (stereo not given),inactive: -0.151,inactive: -0.279,inactive: -1.07
CC(=O)[C@]1(O)Cc2c(O)c3c(c(O)c2[C@@H](O[C@H]2C[C@H]([NH3+])[C@H](O)[C@H](C)O2)C1)C(=O)c1c(O)cccc1C3=O,inactive: -0.526,inactive: -1.6,active: 5.19
O[C@@H]([C@H](O)[C@H](O)CBr)[C@H](O)CBr [mitobronitol],inactive: -0.685,inactive: -0.997,inactive: 3.97
Cc1c(Cc2ccccc2)nnc(N2CCN(c3cnc(C(C)(C)O)cn3)[C@H](C)C2)c1C,inactive: -0.699,inactive: -1.17,inactive: -0.515
CC1=C(C#N)[C@@H](c2ccc(C#N)cc2S(C)(=O)=O)N(C)C(=O)N1c1cccc(C(F)(F)F)c1,inactive: -0.329,inactive: -0.807,inactive: 2.44
CC1(C)O[C@H]2[C@@H]3OS(=O)(=O)O[C@@H]3CO[C@@]2(COS(N)(=O)=O)O1,inactive: -0.451,inactive: -1.26,inactive: -0.8
Nc1nc(Cl)c2ncn(CCCCCB(O)O)c2n1,inactive: -0.0233,inactive: -1.09,inactive: 0.265
Cc1cc(C)c(/C=C2\C(=O)Nc3ccc(Cl)cc32)[nH]1,inactive: -0.619,inactive: 1.42,inactive: -0.103
CN1C[C@@H]2c3ccccc3Oc3ccc(Cl)cc3[C@H]2C1 [Asenapine maleate],inactive: -0.265,inactive: -1.19,inactive: 1.07
Cc1sc[n+](CC(=O)c2ccccc2)c1C [Alagebrium chloride],inactive: -0.788,inactive: -1.19,inactive: 0.153
CC[C@@]1(O)C(=O)OCc2c1cc1n(c2=O)Cc2cc3c(N)cccc3nc2-1,inactive: 1.56,inactive: -1.88,inactive: -2.29

# Retrieved by structure from above:
SMILES,TEAD-luciferase reporter activity (compound concentration: 200 nM),TEAD-luciferase reporter activity (compound concentration: 2 uM),TEAD-luciferase reporter activity (compound concentration: 10 uM)
COc1cc(C(O)CNC(C)CCn2cnc3ccccc32)ccc1O (stereo not given),inactive: -0.151,inactive: -0.279,inactive: -1.07
Cc1cc(C)n(O)c(=O)c1,inactive: -0.0189,inactive: -1.7,inactive: 0.458
